For the test, the system named is P388 leukemia ip, CD2F1 mice, survival T/C. The test can be described thus: NCI In Vivo Anticancer Drug Screen. Data for tumor model P388 Leukemia (intraperitoneal) in CD2F1 (CDF1) mice. Conditions: T/C endpoint: median survival time, higher T/C = longer survival.
Where [1] appears, read: dose: 200.0 mg/kg/injection, schedule: Q01DX009 (ip), vehicle: saline with Tween-80.
Setting [2] is: dose: 50.0 mg/kg/injection, schedule: Q01DX005 (ip), vehicle: saline with Tween-80.
[3] abbreviates: dose: 100.0 mg/kg/injection, schedule: Q01DX005 (ip), vehicle: saline with Tween-80.
Setting [4] is: dose: 200.0 mg/kg/injection, schedule: Q01DX005 (ip), vehicle: saline with Tween-80.
The mark [5] stands for this setting: dose: 50.0 mg/kg/injection, schedule: Q04DX003 (ip), vehicle: Klucel (hydroxypropylcellulose) (HPC).
Where [6] appears, read: dose: 100.0 mg/kg/injection, schedule: Q04DX003 (ip), vehicle: Klucel (hydroxypropylcellulose) (HPC).
[7] abbreviates: dose: 400.0 mg/kg/injection, schedule: Q04DX002 (ip), vehicle: saline with Tween-80.
The mark [8] stands for this setting: dose: 200.0 mg/kg/injection, schedule: Q04DX002 (ip), vehicle: saline.
Where [9] appears, read: dose: 400.0 mg/kg/injection, schedule: Q04DX002 (ip), vehicle: saline.
The mark [10] stands for this setting: dose: 400.0 mg/kg/injection, schedule: Q04DX003 (ip), vehicle: Klucel (hydroxypropylcellulose) (HPC).

The list shows only some results of the screen, not a fair sample: it is rich in T/C values a quarter to a half above the control, in often repeated tests (any T/C) and in doses without a T/C. Other doses and runs of a compound stand elsewhere. T/C gives the treated animals as a percentage of the vehicle group. Some doses have a count of surviving animals in place of a T/C: the source holds a T/C of zero for them, seemingly a mark for toxic or unscored doses. Some survivor counts are full or nearly so, which does not show that the dose was tolerated: survival well below the control is almost never listed, so the zero probably covers shortened survival too. Survivors were counted at the toxicity check, usually on the fifth day, unless a day is given; later deaths do not show. Schedules are NCI's codes, read here as Q, the interval in days (D) or hours (H), X, the number of doses. Some entries hold several experiments; the values are given in rising order. For survival time, the PubChem record calls one and a half times the control and up active, and a quarter to a half above the control has no call in these data; cut-offs in other NCI protocols can differ. Some T/C values are followed by the survivors on the day toxicity was checked, most often the fifth; where none is given, no animal had died by that day.

Take `CN(C)c1ccc(NN=O)nc1`: the T/C was 137 and 144 % of control (dose: 3.13 mg/kg/injection, schedule: Q01DX009 (ip), vehicle: water); 139 % of control (dose: 6.25 mg/kg/injection, schedule: Q01DX009 (ip), vehicle: water); 141 % of control (dose: 12.5 mg/kg/injection, schedule: Q01DX009 (ip), vehicle: water). Besides, the survivor count (dose: 25.0 mg/kg/injection, schedule: Q01DX009 (ip), vehicle: water) was 5 of 6 and 6 of 6; the survivor count (dose: 50.0 mg/kg/injection, schedule: Q01DX009 (ip), vehicle: water) was 0 of 6.

For the compound `COc1cc(O)c(Cc2ccccc2O)c(O)c1C(=O)CCc1ccccc1`, for the setting “dose: 10.0 mg/kg/injection, schedule: Q01DX009 (ip), vehicle: saline with Tween-80”, the T/C is 133 % of control.

As for `CC(=S)NC(O)C(=O)c1ccccc1` (configuration not stated), the T/C (dose: 50.0 mg/kg/injection, schedule: Q01DX009 (ip), vehicle: saline with Tween-80) was 135 % of control; the T/C (dose: 100.0 mg/kg/injection, schedule: Q01DX009 (ip), vehicle: saline with Tween-80) was 129 and 133 % of control [5 of 6 alive]; the T/C under setting [1] is 126 [5 of 6 alive] and 134 % of control; the T/C (dose: 400.0 mg/kg/injection, schedule: Q01DX009 (ip), vehicle: saline with Tween-80) is 128 % of control [5 of 6 alive].

`COC1=C(N)C(=O)c2cccnc2C1=O`: under “dose: 50.0 mg/kg/injection, schedule: Q01DX009 (ip), vehicle: DMSO”, the survivor count is listed as 1 of 4.

As to `N#CC(Br)CNC(=O)Oc1ccccc1` (configuration not stated), the survivor count (dose: 400.0 mg/kg/injection, schedule: Q01DX005 (ip), vehicle: Klucel (hydroxypropylcellulose) (HPC)) was 0 of 6.

Turning to `CC1C2=C(CN(C)CC2)c2ccccc21` (configuration not stated), the survivor count is given as 1 of 6 under setting [2], 0 of 6 under setting [3] and 0 of 6 under setting [4].

`Nc1nc(=S)c2[nH]c(N=Nc3ccc(S(N)(=O)=O)cc3)nc2[nH]1`: the T/C (dose: 6.25 mg/kg/injection, schedule: Q04DX003 (ip), vehicle: Klucel (hydroxypropylcellulose) (HPC)) is 140 % of control; the T/C (dose: 12.5 mg/kg/injection, schedule: Q04DX003 (ip), vehicle: Klucel (hydroxypropylcellulose) (HPC)) was 133 % of control; the T/C (dose: 25.0 mg/kg/injection, schedule: Q04DX003 (ip), vehicle: Klucel (hydroxypropylcellulose) (HPC)) is 133 % of control; the T/C under setting [5] is 143 % of control. Further, the survivor count under setting [6] was 3 of 6.

As for `COc1cc(NS(C)(=O)=O)ccc1Nc1c2ccc(Cl)cc2nc2c(OC)cccc12`, the T/C (dose: 3.13 mg/kg/injection, schedule: Q04DX003 (ip), vehicle: saline with Tween-80) was 145 % of control.

For the compound `COC1NC(=O)Oc2ccccc21` (configuration not stated), the T/C runs as follows: under setting [4], 131 % of control; (dose: 400.0 mg/kg/injection, schedule: Q01DX005 (ip), vehicle: saline with Tween-80) 140 % of control.

For `CC(=O)OCC#CCN1CCCCC1`, the survivor count is given as 2 of 6 (dose: 50.0 mg/kg/injection, schedule: Q01DX005 (ip), vehicle: saline); 1 of 6 (dose: 100.0 mg/kg/injection, schedule: Q01DX005 (ip), vehicle: saline); 0 of 6 (dose: 200.0 mg/kg/injection, schedule: Q01DX005 (ip), vehicle: saline).

In the case of `COc1cc(C2NCCc3cc4c(cc32)OCO4)cc(OC)c1OC` (configuration not stated), the survivor count under setting [4] is 2 of 5.

With `N#CC(c1ccccc1)c1nccc2ccccc12` (configuration not stated), the survivor count under setting [7] is given as 0 of 6.

As to `COc1cc(C(c2cc3c(cc2O)OCO3)N2CCCCC2)cc(OC)c1OC` (configuration not stated), the T/C was 127 % of control (dose: 120.0 mg/kg/injection, schedule: Q01DX005 (ip), vehicle: saline with Tween-80); 125 and 127 % of control (dose: 240.0 mg/kg/injection, schedule: Q01DX005 (ip), vehicle: saline with Tween-80). Moreover, the survivor count (dose: 480.0 mg/kg/injection, schedule: Q01DX005 (ip), vehicle: saline with Tween-80) is reported as 1 of 6.

For `CCCCN(CCCC)CCCC(C(C)=O)C(=O)OCC` (configuration not stated), the survivor count (dose: 200.0 mg/kg/injection, schedule: Q01DX005 (ip), vehicle: Klucel (hydroxypropylcellulose) (HPC)) was 0 of 6.

For `COc1ccc(Cc2cc(N=NC(N)=O)c(OC)cc2O)cc1`, the survivor count by setting is: under setting [2], 6 of 6; under setting [3], 6 of 6; under setting [4], 6 of 6.

Take `C=CC(Br)CCCBr` (configuration not stated): the survivor count reads like this: (dose: 200.0 mg/kg/injection, schedule: Q04DX002 (ip), vehicle: saline with Tween-80) 0 of 5; under setting [7], 0 of 5.

In the case of `NNc1nn2cnnc2c2ccccc12`, the survivor count is, setting by setting: (dose: 100.0 mg/kg/injection, schedule: Q04DX002 (ip), vehicle: saline) 6 of 6; under setting [8], 5 of 6.

Turning to `Cn1cccc/c1=N\N`, the survivor count under setting [9] is 1 of 6.

In the case of `O=C(Cl)CC1CC(=O)OC1=O` (configuration not stated), under setting [1], the survivor count was 2 of 6.

In the case of `COC1=CP(C)(=S)CC1` (configuration not stated), the survivor count under setting [10] was 4 of 6.

Turning to `Nc1c(C(=O)NCc2ccccc2)c2nc3c(C(=O)NCc4ccccc4)cccc3oc-2cc1=O`, the survivor count reads like this: (dose: 12.5 mg/kg/injection, schedule: Q01DX005 (ip), vehicle: saline with Tween-80) 6 of 6; (dose: 25.0 mg/kg/injection, schedule: Q01DX005 (ip), vehicle: saline with Tween-80) 6 of 6; under setting [2], 6 of 6.

For `C[As](C)SC(CO)C1OC2OC(C)(C)OC2C1O` (configuration not stated), the survivor count (dose: 100.0 mg/kg/injection, schedule: Q01DX009 (ip), vehicle: saline + alcohol) is 0 of 6 and the survivor count (dose: 200.0 mg/kg/injection, schedule: Q01DX009 (ip), vehicle: saline + alcohol) was 0 of 6.

Regarding `CC(C)CC1([N+](=O)[O-])CN(C)CC2CCCCN2C1` (configuration not stated), the survivor count under setting [8] is 2 of 6 and the survivor count under setting [9] was 0 of 6.

With `CN1CCCC2c3ccccc3CCC21` (configuration not stated), the survivor count by setting is: under setting [5], 5 of 6; under setting [6], 0 of 6; (dose: 200.0 mg/kg/injection, schedule: Q04DX003 (ip), vehicle: Klucel (hydroxypropylcellulose) (HPC)) 0 of 6; under setting [10], 0 of 6.

`C/C(=N\N=C(N)N)c1ccccc1`: the survivor count (dose: 25.0 mg/kg/injection, schedule: Q01DX009 (ip), vehicle: saline) is 0 of 6 and the survivor count (dose: 50.0 mg/kg/injection, schedule: Q01DX009 (ip), vehicle: saline) is 0 of 6.

As for `Cc1ccc(S(=O)(=O)C(c2ccccc2)C(Br)C(=O)c2ccccc2)cc1` (configuration not stated), the survivor count (dose: 400.0 mg/kg/injection, schedule: Q04DX003 (ip), vehicle: saline) is on record as 6 of 6.

On to `O=P(O)(O)c1ccccc1P(=O)(O)O`, for which, where the note is “dose: 240.0 mg/kg/injection, schedule: Q01DX005 (ip), vehicle: saline”, the survivor count is 0 of 6.

`O=c1ccc(OS(=O)(=O)c2ccccc2)n[nH]1`: the survivor count (dose: 240.0 mg/kg/injection, schedule: Q01DX005 (ip), vehicle: Klucel (hydroxypropylcellulose) (HPC)) is given as 6 of 6.

As for `CCC(=O)c1nc(N)[nH]c1CC`, the survivor count (dose: 20.0 mg/kg/injection, schedule: Q01DX005 (ip), vehicle: Klucel (hydroxypropylcellulose) (HPC)) is recorded as 3 of 6; the survivor count (dose: 40.0 mg/kg/injection, schedule: Q01DX005 (ip), vehicle: Klucel (hydroxypropylcellulose) (HPC)) was 0 of 6; the survivor count (dose: 80.0 mg/kg/injection, schedule: Q01DX005 (ip), vehicle: Klucel (hydroxypropylcellulose) (HPC)) is recorded as 0 of 6.

Regarding `N#CCCNc1cc(O)c2c(c1O)C(=O)c1ccccc1C2=O`, the survivor count (dose: 12.5 mg/kg/injection, schedule: Q01DX009 (ip), vehicle: other) is listed as 4 of 5.
